In the assay the target is TraC of the gonococcal type IV secretion system (cytoplasmic ATPase, VirB4 homologue) (Neisseria gonorrhoeae). The experiment in a line: two-hybrid; bacterial two-hybrid (BACTH): T18 and T25 fragments of B. pertussis adenylate cyclase fused to the N- or C-terminus; plasmids co-transformed into E. coli BTH101; LB agar with 0.5 mM IPTG and 40 ug/ml X-gal, 40-48 h at 30 C, blue colony colour; beta-galactosidase assay (Miller) of overnight cultures at 30 C for some pairs.

Results are given in words; binding and its absence hold for the method and conditions named. Binding can be weak; no strength is given.

B1: SopB, plasmid partitioning protein of F-plasmid (DNA-binding partner) (protein, UniProt P62558 1-323)
chain: MKRAPVIPKHTLNTQPVEDTSLSTPAAPMVDSLIARVGVMARGNAITLPVCGRDVKFTLEVLRGDSVEKTSRVWSGNERDQELLTEDALDDLIPSFLLTGQQTPAFGRRVSGVIEIADGSRRRKAAALTESDYRVLVGELDDEQMAALSRLGNDYRPTSAYERGQRYASRLQNEFAGNISALADAENISRKIITRCINTAKLPKSVVALFSHPGELSARSGDALQKAFTDKEELLKQQASNLHEQKKAGVIFEAEEVITLLTSVLKTSSASRTSLSSRHQFAPGATVLYKGDKMVLNLDRSRVPTECIEKIEAILKELEKPAP
Consider B1, for which the binding entry is recorded as “binds”.
